Laboratory results published in article PMC7219087.
Results are given in words; binding and its absence hold for the method and conditions named. Binding can be weak; no strength is given. For part of these data: Tags and fused reporters may be left off the sequences shown. For part of these data: Binding seen in cells or lysates may run through a third protein.

By UniProt entry, the sequences of proteins in these tests, tags left out. Where a name states a change or a piece, a line headed by the entry shows the natural chain unless it says otherwise.
UniProt A4D998: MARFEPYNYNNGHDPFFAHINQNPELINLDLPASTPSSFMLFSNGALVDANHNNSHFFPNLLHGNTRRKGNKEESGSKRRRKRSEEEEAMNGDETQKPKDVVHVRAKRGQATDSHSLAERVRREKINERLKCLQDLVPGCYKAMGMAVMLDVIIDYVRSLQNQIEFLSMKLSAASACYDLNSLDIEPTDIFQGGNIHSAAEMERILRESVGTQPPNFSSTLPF

B1: BRASSINOSTEROID ENHANCED EXPRESSION1 (BEE1), yeast two-hybrid fusion (protein, UniProt Q8GZ13 1-260)
chain: MANFENLSSDFQTIAMDIYSSITQAADLNNNNSNLHFQTFHPSSTSLESLFLHHHQQQLLHFPGNSPDSSNNFSSTSSFLHSDHNIVDETKKRKALLPTLSSSETSGVSDNTNVIATETGSLRRGKRLKKKKEEEDEKEREVVHVRARRGQATDSHSLAERVRRGKINERLRCLQDMVPGCYKAMGMATMLDEIINYVQSLQNQVEFLSMKLTAASSFYDFNSETDAVDSMQRAKARETVEMGRQTRDGSPVFHLSTWSL

Columns and labels:
[1] = target: CESTA (CES), yeast two-hybrid fusion (Arabidopsis thaliana) (UniProt A4D998); assay: two-hybrid; GAL4 system (pGADT7 and pGBKT7), yeast strain AH109, cotransformation, 22°C; positive when growth on -W-L-H +15 mM 3-AT selective medium
[2] = target: CESTA (CES), split-YFP fusion for BiFC (Arabidopsis thaliana) (UniProt A4D998); assay: split reporter; BiFC with split YFP (pYFPN43 and pYFPC43) in agroinfiltrated tobacco leaves; abaxial surfaces observed 2-5 days after agroinfiltration by confocal microscopy; YFP fluorescence in nuclei

Molecule	binding [1]	binding [2]
… (STK), yeast two-hybrid fusion (from UniProt Q38836 1-230)	binds	–
… (STK), split-YFP fusion for BiFC (from UniProt Q38836 1-230)	–	binds
B1	binds	–
